Assay results taken from PubChem BioAssay AID540256 (National Center for Advancing Translational Sciences (NCATS), 2011).
Screen size: about 300,000 compounds; about 3,700 (1.2%) were called active. This list was built around the results that the source calls inconclusive (neither active nor inactive); the mix of calls is not that of the screen. The call rests on the fitted dose curve; tested in HEK293 cells. Potencies of inconclusive entries are doubtful fits and often do not repeat.

test: qHTS for Inhibitors of binding or entry into cells for Lassa Virus; details: Lassa virus pseudotype entry inhibition, cell reporter; activity change, negative = inhibition: at 37.9 µM (top of the series) unless noted; further: nearly all actives have a fitted effect of over 50% in size
On the % scale 0 is the no-effect control and ±100 the full control effect; potency means the concentration at half of the fitted maximal effect.

Structure (SMILES)	Potency	activity change, negative = inhibition
CN1CCN(CC(=O)Nc2ccc(OC(F)(F)F)cc2)CC1	inconclusive: 0.1 µM [activator, full curve, poor fit]	–
CCc1ccc(-c2cn3c(n2)sc2cc(C(=O)NCCCc4ccccc4)ccc23)cc1	inconclusive: 12.6 µM [inhibitor, single point]	–
COc1ccc(CNC(=S)N/N=C/c2ccncc2)cc1	inconclusive: 18.4 µM [inhibitor, single point]	–
CCN(CC)CCNC(=O)c1ccc2c(=O)n3nc(Nc4cccc(Cl)c4C)sc3nc2c1	inconclusive: 35.5 µM [inhibitor, single point]	–
COc1ccc(C2=[N+]([O-])C(C)(C)C(c3ccccc3)=N2)cc1	–	inactive: -6.15%
Fc1ccccc1SCc1nnc(-c2ccccc2Br)o1	inconclusive: 15.8 µM [inhibitor, single point]	–
COc1ccc(-c2nsc(NC(=O)c3cccc(OC)c3)n2)cc1	–	inactive: 4.3% [at 46.1 µM]
CCCc1ccc2oc(C(=O)NCc3nnc(C)o3)c(C)c2c1	inconclusive: 35.5 µM [inhibitor, single point]	–
N#Cc1ccc(C(=O)Nc2ccc3ccccc3c2)cc1	active: 3.98 µM	–
Cc1ccc(-c2noc(CCC(=O)NCC3CCCO3)n2)cc1 (centres undefined)	–	inactive: 9.64%
COc1cccc(CNC(=O)c2ccc(NC(=O)C3CCCO3)cc2)c1 (centres undefined)	–	inactive: 9.13%
COc1ccc(C/C(C)=N/NC(=O)c2ccc(Cl)cc2)cc1	–	inactive: -7.66%
COC(=O)c1ccc(NC(=O)c2ccco2)cc1	inconclusive: 0.326 µM [activator, full curve, poor fit]	–
COc1ccc2c(c1)-c1nc(NC(=O)c3cccs3)sc1CC2	inconclusive: 22.4 µM [inhibitor, single point]	–
C/C(=N\NC(=O)C1CC1c1ccccc1)c1cccc([N+](=O)[O-])c1 (centres undefined)	inconclusive: 5.01 µM [inhibitor, partial curve]	–
COc1ccc(-c2ccc(NS(=O)(=O)c3ccccc3Cl)cc2)nn1	inconclusive: 17.8 µM [inhibitor, single point]	–
O=C(NC1CCCC1)C(c1cccnc1)N(C(=O)c1ccco1)c1ccc(F)cc1 (centres undefined)	inconclusive: 35.5 µM [inhibitor, single point]	–
CCCNC(=O)OCc1cccnc1Sc1ccc(C)cc1	active: 10 µM	–
O=C(COc1ccccc1)NCC(=O)NC1=NCCS1	–	inactive: -0.787%
O=C(COc1ncnc2c1cnn2-c1ccccc1)Nc1ccc(S(=O)(=O)N2CCCCC2)cc1	inconclusive: 35.5 µM [inhibitor, single point]	–
CC(C)Cc1nnc(NC(=O)Cc2ccccc2[N+](=O)[O-])s1	inconclusive: 31.6 µM [activator, single point]	–
O=C(Nc1ccccc1)Nc1nnc(CSCc2ccccc2Cl)s1	–	inactive: -4.71%
Cc1ccc(NS(=O)(=O)c2ccc(C(=O)NCC3CCCO3)cc2)cc1 (centres undefined)	inconclusive: 22.4 µM [inhibitor, single point]	–

Structure (SMILES)	Potency	activity change, negative = inhibition
Cc1ccc(-c2csc(NC(=O)C3=NN(c4ccccc4)C(=O)CC3)n2)cc1	inconclusive: 11.6 µM [inhibitor, partial curve, poor fit]	–
COc1ccc(-n2nc(C(C)=O)c(=O)[nH]c2=O)cc1	inconclusive: 35.5 µM [inhibitor, single point]	–
Cc1ccc2c(c1)C(c1ccccc1)N(C(=O)c1cccc([N+](=O)[O-])c1)CC(=O)N2 (centres undefined)	inconclusive: 6.31 µM [inhibitor, partial curve, poor fit]	–
Cc1nc(SCC(=O)Nc2ccc(Cl)cc2C(F)(F)F)[nH]c(=O)c1Cc1ccccc1	–	inactive: -17.4% [at 46.1 µM]
Cc1cc(C)cc(NC(=O)CNC(c2ccccc2)c2ccccc2)c1	inconclusive: 11.2 µM [inhibitor, partial curve, poor fit]	–
O=C(Nc1ccc2nsnc2c1)NC1CCCCC1	inconclusive: 15.8 µM [inhibitor, partial curve, poor fit]	–
COc1ccc(CNC(=O)c2ccc3c(Cl)c4c(nc3c2)CCCC4)c(OC)c1	inconclusive: 6.31 µM [inhibitor, partial curve, poor fit]	–
Cc1cccc(Nc2cc(C)nc3nc(Cc4ccc(Cl)cc4)nn23)c1	inconclusive: 11.2 µM [inhibitor, partial curve, poor fit]	–
Clc1ccc2[nH]c(-c3ccccc3)cc2c1	inconclusive: 1.78 µM [activator, partial curve]	–
CN(C)C(=O)c1ccc(NC(=O)CC2SC(N3CCCC3)=NC2=O)cc1 (centres undefined)	inconclusive: 6.31 µM [inhibitor, single point]	–
COc1ccc(S(=O)(=O)N(C)CC(=O)NCCC2=CCCCC2)cc1C	inconclusive: 13 µM [inhibitor, single point]	–
CCCCc1ccc(NC(=O)COc2ccc(C(=O)Nc3ccccc3OCC)cc2)cc1	inconclusive: 2.82 µM [inhibitor, single point]	–
CCCOc1ccccc1C(=O)Nc1ccc(-c2nc3ccc(C)cc3s2)cc1	inconclusive: 2.82 µM [activator, partial curve, poor fit]	–
CCOc1cc(C(=O)N2CCN(C/C=C/c3ccccc3)CC2)cc(OCC)c1OCC	–	inactive: -26.3%
CC(Oc1ccccc1)C(=O)Nc1ccc(C(=O)OCc2cc(=O)n3ccsc3n2)cc1 (centres undefined)	inconclusive: 10 µM [inhibitor, partial curve, poor fit]	–
Cc1cc(C(=O)N/N=C/c2cc(Br)cc(Br)c2OC(=O)c2cccc(F)c2)n[nH]1	active: 11.6 µM	–
COc1ccc2nc(Sc3c([N+](=O)[O-])nc(C)n3Cc3ccccc3)[nH]c2c1	active: 16.4 µM	–
COc1ccc(C(CNC(=O)c2cccc(NS(=O)(=O)c3ccc(C)c(F)c3)c2)N2CCCC2)cc1 (centres undefined)	inconclusive: 6.31 µM [inhibitor, partial curve, poor fit]	–
Cc1cc(OCc2cn3cccnc3n2)ccc1Cl	inconclusive: 3.26 µM [activator, single point]	–
O=C(Nc1ccc2nn(-c3ccccc3)nc2c1)c1ccc2c(c1)OCCO2	inconclusive: 10 µM [inhibitor, partial curve]	–
COc1cccc(C(CNC(=O)c2ccc(Cl)c(S(=O)(=O)N3CCCC3)c2)N(C)C)c1 (centres undefined)	inconclusive: 35.5 µM [inhibitor, partial curve, poor fit]	–
O=C(NN=C1C2CC3CC(C2)CC1C3)c1cccs1	–	inactive: 2%
CCc1nn2c(=O)cc(COC(=O)c3cccs3)nc2s1	inconclusive: 6.31 µM [activator, single point]	–

18 entries already listed, arranged by formula weight, high to low.
Structure (SMILES)	Potency	activity change, negative = inhibition
COc1ccc(C(CNC(=O)c2cccc(NS(=O)(=O)c3ccc(C)c(F)c3)c2)N2CCCC2)cc1 (centres undefined)	inconclusive: 6.31 µM [inhibitor, partial curve, poor fit]	–
COc1cccc(C(CNC(=O)c2ccc(Cl)c(S(=O)(=O)N3CCCC3)c2)N(C)C)c1 (centres undefined)	inconclusive: 35.5 µM [inhibitor, partial curve, poor fit]	–
CC(Oc1ccccc1)C(=O)Nc1ccc(C(=O)OCc2cc(=O)n3ccsc3n2)cc1 (centres undefined)	inconclusive: 10 µM [inhibitor, partial curve, poor fit]	–
CCCCc1ccc(NC(=O)COc2ccc(C(=O)Nc3ccccc3OCC)cc2)cc1	inconclusive: 2.82 µM [inhibitor, single point]	–
CCOc1cc(C(=O)N2CCN(C/C=C/c3ccccc3)CC2)cc(OCC)c1OCC	–	inactive: -26.3%
COc1ccc(CNC(=O)c2ccc3c(Cl)c4c(nc3c2)CCCC4)c(OC)c1	inconclusive: 6.31 µM [inhibitor, partial curve, poor fit]	–
Cc1ccc2c(c1)C(c1ccccc1)N(C(=O)c1cccc([N+](=O)[O-])c1)CC(=O)N2 (centres undefined)	inconclusive: 6.31 µM [inhibitor, partial curve, poor fit]	–
COc1ccc2nc(Sc3c([N+](=O)[O-])nc(C)n3Cc3ccccc3)[nH]c2c1	active: 16.4 µM	–
Cc1ccc(-c2csc(NC(=O)C3=NN(c4ccccc4)C(=O)CC3)n2)cc1	inconclusive: 11.6 µM [inhibitor, partial curve, poor fit]	–
COc1ccc(S(=O)(=O)N(C)CC(=O)NCCC2=CCCCC2)cc1C	inconclusive: 13 µM [inhibitor, single point]	–
CN(C)C(=O)c1ccc(NC(=O)CC2SC(N3CCCC3)=NC2=O)cc1 (centres undefined)	inconclusive: 6.31 µM [inhibitor, single point]	–
O=C(Nc1ccc2nn(-c3ccccc3)nc2c1)c1ccc2c(c1)OCCO2	inconclusive: 10 µM [inhibitor, partial curve]	–
Cc1cccc(Nc2cc(C)nc3nc(Cc4ccc(Cl)cc4)nn23)c1	inconclusive: 11.2 µM [inhibitor, partial curve, poor fit]	–
CCc1nn2c(=O)cc(COC(=O)c3cccs3)nc2s1	inconclusive: 6.31 µM [activator, single point]	–
O=C(Nc1ccc2nsnc2c1)NC1CCCCC1	inconclusive: 15.8 µM [inhibitor, partial curve, poor fit]	–
Cc1cc(OCc2cn3cccnc3n2)ccc1Cl	inconclusive: 3.26 µM [activator, single point]	–
COc1ccc(-n2nc(C(C)=O)c(=O)[nH]c2=O)cc1	inconclusive: 35.5 µM [inhibitor, single point]	–
Clc1ccc2[nH]c(-c3ccccc3)cc2c1	inconclusive: 1.78 µM [activator, partial curve]	–

Further structures:

Structure (SMILES)	Potency	activity change, negative = inhibition
CC12CN3CC(C)(CN(C1)C31CCSCC1)C2=O	–	inactive: 12%
OC(COC1CCCCC1)CN1CCN(c2ccccc2)CC1 (centres undefined)	–	inactive: 3.52%
Cc1nn(CCc2nn[nH]n2)c2nc(-c3ccc(C4CCCCC4)cc3)cc(C(F)(F)F)c12	inconclusive: 22.4 µM [inhibitor, single point]	–
O=C(Nc1cc(-c2nc3cc(Cl)ccc3o2)ccc1Cl)c1cc2ccccc2o1	–	inactive: 10.4% [at 46.1 µM]
O=C(O)c1ccc(N(Cc2ccccc2)S(=O)(=O)c2ccccc2)cc1	–	inactive: -1.61% [at 46.1 µM]
CCc1cccc(CC)c1NC(=O)CN1CCN(c2ccccc2)CC1	inconclusive: 16.4 µM [inhibitor, single point]	–
CN(Cc1ccccc1)S(=O)(=O)c1ccc(F)c(C(=O)Nc2cc(Cl)cc(Cl)c2)c1	–	inactive: 11.4% [at 46.1 µM]
CC1CC(C)C(=O)C(C(CC2CC(=O)NC(=O)C2)OC(=O)CC(=O)c2ccccc2)C1 (centres undefined)	inconclusive: 8.91 µM [inhibitor, partial curve, poor fit]	–
COCCCC/C(=N\OCCN)c1ccc(C(F)(F)F)cc1	active: 6.51 µM	–
CCOc1cccc(C(=O)N2CCCCC2c2cccnc2)c1 (centres undefined)	–	inactive: 9.99%
O=C(NCc1ccccc1)c1ccc(Cn2c(=O)c3cccn3c3cccnc32)cc1	inconclusive: 35.5 µM [activator, single point]	–
Cc1cnc(C(=O)OCC(=O)Nc2ccc3c(c2)OCCO3)cn1	inconclusive: 7.08 µM [activator, partial curve, poor fit]	–
CCN(Cc1ccccc1)Cc1c(O)ccc2c(=O)c(-c3ccccc3Cl)coc12	–	inactive: -5.87% [at 46.1 µM]
Clc1ccccc1Nc1nc(-c2cccnc2)cs1	inconclusive: 11.2 µM [inhibitor, partial curve, poor fit]	–
Cc1ccc(-c2nn(-c3ccccn3)c(=O)c3ccccc23)cc1	inconclusive: 7.94 µM [inhibitor, partial curve, poor fit]	–
CC(C)N1CCc2c(sc(NC(=S)NC(=O)c3ccccc3)c2C#N)C1	–	inactive: 13.1%
COc1ccc2c(CN(C)Cc3ccccc3)cc(=O)oc2c1	inconclusive: 4.45 µM [activator, full curve]	–
Cc1ccc(NC2=CC(=O)CCC2)cc1C	inconclusive: 0.259 µM [activator, single point]	–
CCCOc1ccccc1C1CC(=O)NC2=C1C(=O)CCC2 (centres undefined)	inconclusive: 3.98 µM [inhibitor, full curve, poor fit]	–
CCN(CC)CCOC(=O)C(Cc1ccco1)Cc1cccc2ccccc12 (centres undefined)	inconclusive: 10 µM [inhibitor, partial curve, poor fit]	–
CCOC(=O)Cc1nnc(NC(=O)c2cccc(OCC)c2)s1	–	inactive: 15.8%
COc1ccc(NC(=O)CSc2nc3ccccc3n2CC(=O)Nc2cccc(C)c2C)cc1	–	inactive: -8.89% [at 46.1 µM]
Cc1ccc(C)c(OCC(O)CN2CCN(CCN3C(=O)c4cccc5cccc(c45)C3=O)CC2)c1 (centres undefined)	inconclusive: 20 µM [inhibitor, partial curve, poor fit]	–
